± gives the standard deviation. Only a part is listed here, and it is no random draw. Many entries were measured with a wide error.

The assay concerns MILI (PIWIL2) piRISC loaded with Kctd7 piRNA (26 nt). As to the kind of experiment: pre-steady-state target cleavage rate (min^-1); MIWI and MILI are mouse PIWI proteins and EfPiwi is from a freshwater sponge; tags in brackets are library labels; higher = faster piRNA-guided slicing of the target. The note with it: guide: Kctd7 piRNA 5'p-UGUUAAUCUCUCAGAGAAGGUGACAG; auxiliary factor: 500 nM mouse GTSF1. An outline of the steps:
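With or without 500 nM GTSF1 partner protein, 1 nM active affinity-purified piRISC carrying one synthetic guide was mixed with 0.1 nM transcribed, DNA-blocked target RNA library in HEPES–potassium acetate buffer at 33 °C for 0–8 or 0–960 min. Uncleaved targets were sequenced and normalised to depth and to weakly complementary targets, three trials were pooled, and k3 was capped at 0.0001 min^-1. The pre-steady-state cleavage rate came from a burst-and-steady-state fit.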
For the sequence UAGUGACAGUGCUUCUCUGAGUGAUUAACA, the “pre-steady-state target cleavage rate” value turned out to be 0.000967 ± 0.0051. Consider UAGUGACAGACCAUCUCUGAGUGAUUAACA, for which the “pre-steady-state target cleavage rate” value was 0.00125 ± 0.0083. As for UAGUGUGUCACCUUGUCUGAGAGAUUAACA, the “pre-steady-state target cleavage rate” value turned out to be 0.134 ± 0.021.

In the case of UAGUGACAGUGCUUCUCGAGAGAUUAACA, the “pre-steady-state target cleavage rate” value was 0.00253 ± 0.0049.

On to UAGUGUGUCACCUUGAGUGAGAGAUUAUGA, for which the “pre-steady-state target cleavage rate” value turned out to be 0.000567 ± 0.022. Under UAGUGACACACCUUCUCUGACACAUUAACA stands 0.00164 ± 0.0058; under UAGUGACAGUGGAAGUCUGAGAUGAUUAACA, 0.000491 ± 0.007. Then UAGUCUGUCACCUUCUCUGUGUGAUUAACA, with 0.00321 ± 0.0053. Under UAGUGAGUCACCUUGACUGAGAGAUUUUGA stands 0.000491 ± 0.022; under UAGUGAGUCACCUUCUCUGAGUCAUAUUGA, 0.0008 ± 0.012. For UAGUGACAGUCCUUCUCUGUGAGAUUAUGA, the “pre-steady-state target cleavage rate” value was 0.00149 ± 0.0049. In the case of UAGUGACACACCUUGACUGAGAGAUUUUGA, the “pre-steady-state target cleavage rate” value came to 0.00107 ± 0.013. On to UAGUGACUCACCUUCAGAGAGAGAUAUUGA, for which the “pre-steady-state target cleavage rate” value was determined as 0.000401 ± 0.015. Under UAGUGAGUCACCUUCAGAGAGAGAUUAUGA stands 0.00216 ± 0.007; under UAGUGACAGUGCAUCUCUGAGAGAUUAAGA, 0.00125 ± 0.005. Under UAGUGACUCACCUUCUCUCUCAGAUUAACA stands 0.00199 ± 0.0047; under UAGUGACAGUCCUUGUGUGAGAGAUUAACA, 0.0291 ± 0.0078; under UAGUGACAGUGGAAGACUGAGAGAUUAAACA, 0.000127 ± 0.019. Under UAGUGACAGUGGUUCUCUGAGAGAUUAAUCA stands 0.00205 ± 0.0027. With UAGUGACAGUGCUUCUCUGAGAGAUGAACA, the “pre-steady-state target cleavage rate” value worked out at 0.00232 ± 0.003. On to UAGUGACACACCUUCUCUGACUCAUUAAGA, for which the “pre-steady-state target cleavage rate” value is 0.000494 ± 0.012. Then UAGUGACAGUGGAAGUCUGAGAGAUUAAAA, with 0.000128 ± 0.045; and UAGUGUGUCACCUUCUCUGAGUCAUUUUGA, with 0.00122 ± 0.0091; and UAGUGUGUCACCUUGAGUGAGAGAUUUUGA, with 0.00109 ± 0.011.

On to UAGUGACAGUCCUUCUGUGAGUGAUUAACA, for which the “pre-steady-state target cleavage rate” value was 0.00146 ± 0.0044. Under UAGUGAGAGACCUUCUCUGAGAGAUAUUGA stands 0.00194 ± 0.0065. Under UAGUGACAGUGGUUCUCUGAGAGGAUUAACA stands 0.000787 ± 0.0053; under UAGUGUGUCACCUUCUCUGACACAUUAACA, 0.000694 ± 0.016; under UAGUGACAGUCCUUCUCUGAUGAGAUUAACA, 0.00278 ± 0.0025. Then UAGUGACAGUCCUUCUCUCAGAGAUUUACA, with 0.00261 ± 0.0046. UAGUGACAGUGCUUCUCUGUGACAUUAACA: the “pre-steady-state target cleavage rate” value was 0.00109 ± 0.0057.

On to UAGUGACAGUGGAUCUCUGAGGGAUUAACA, for which the “pre-steady-state target cleavage rate” value was determined as 0.00028 ± 0.011. Under UAGUGACAGUCCUUCUCUGGAGAUUAACA stands 0.00128 ± 0.0051; under UAGUGACAGUGGAAGAGAGUGAGUUUAACA, 0.00024 ± 0.017; under UAGUGUGCCACCUUCUCUGAGAGAUUAACA, 0.227 ± 0.023. Under UAGUGUGUCACCUUCCCUGAGAGAUUAACA stands 0.301 ± 0.056. Then UAGUGAGUCACCUUCUCUGUGAGAUAUUGA, with 0.00441 ± 0.0047; and UAGUGUGUCAGCUUCUGUGAGAGAUUAACA, with 0.129 ± 0.013; and UAGUGACAGUGGUUCUCUGUGUGAUUAACA, with 0.000243 ± 0.015.

On to UAGUCUGAGUCCUUCUCUGAGAGAUAUUGA, for which the “pre-steady-state target cleavage rate” value came out at 0.00206 ± 0.0035.

In the case of UAGUGACAGACCUUCUCAGAGAGAUUAUCA, the “pre-steady-state target cleavage rate” value is 0.00719 ± 0.0072.

With UAGUGACAGUGGAAGAGAGAGUGAAUAACA, the “pre-steady-state target cleavage rate” value was found to be 0.000266 ± 0.019. Then UAGUGACUCACCUUCUUCUGAGAGAUUAACA, with 0.00384 ± 0.0041; and UAGUGACAGUGGAAGAGUGAGUGAAUAACA, with 0.000241 ± 0.017; and UAGUGACAGUGGAAGAGUGAGAGUUUUACA, with 0.000276 ± 0.024. Then UAGUCUGUCACCUUCUGAGAGAGAUAUUGA, with 0.00307 ± 0.0041; and UAGUGACAGUGGAAGCCUGAGAGAUUAACA, with 0.000221 ± 0.015; and UAGUCUGUCACGUUCUCUGACAGAUUAACA, with 0.00232 ± 0.0043.

As to UAGUGACAGUGCUUCUCUGAGUGUUUAACA, the “pre-steady-state target cleavage rate” value amounted to 0.000181 ± 0.018. Then UAGUGACAGAGCUUCUCUGAGAGAUUUUGA, with 0.000773 ± 0.0086.

Turning to UAGUGACAGUGGAAGUCUGAGAGAUUAAACA, the “pre-steady-state target cleavage rate” value is 0.000742 ± 0.0078. Then UAGUGACAGUGGAUCUCUGAGAGUUUAUCA, with 0.000205 ± 0.029; and UAGUCUGUCACCUUCUCUGAGAGAUUUUCA, with 0.12 ± 0.031; and UAGUGACAGUGCUUCUCUGAGUCAUUAACA, with 0.000222 ± 0.017. Turning to UAGUGACAGUGGUUCUCUGAGAGAUUUACA, the “pre-steady-state target cleavage rate” value was found to be 0.000741 ± 0.0067. Then UAGUGUGUCACCUUCUCUGAGAGAUGUAACA, with 0.159 ± 0.029. Under UAGUCUGUCACGUUCUCUGAGAGAUUUUGA stands 0.0018 ± 0.0043. Then UAGUGACAGUGGAAGACUGAGUCUUUAACA, with 0.000437 ± 0.018; and UAGUGAGUCACGAACUCUGAGAGAUUAUGA, with 0.000673 ± 0.014; and UAGUCUGUCAGCUUCUCUGAGUGAUUAACA, with 0.00157 ± 0.0028. Regarding UAGUGACUCACCUUCAGAGAGAGAUUUUGA, the “pre-steady-state target cleavage rate” value turned out to be 0.000692 ± 0.014.

With UAGUGUGUCACCUUGACUGAGAGAUAUUGA, the “pre-steady-state target cleavage rate” value is 0.000379 ± 0.022. Then UAGUGUGUCACCUUCUCUCUCAGAUUAACA, with 0.00177 ± 0.0068. Then UAGUGACAGUGCUUCUCUGACGAGAUUAACA, with 0.001 ± 0.005; and UAGUGUGUCACCUUCUCUGAGAGAUUUACA, with 0.266 ± 0.047; and UAGUGACAGUCCUUCUCUGAGAGAUAUACA, with 0.00219 ± 0.0035. Then UAGUGAGUCACCUUCUCUGAGAGAAUUACA, with 0.105 ± 0.048. With UAGUGACAGACCAACUCUGAGAGAUUAAGA, the “pre-steady-state target cleavage rate” value is 0.00219 ± 0.0037. Then UAGUGACAGUCCUUCUCUGAGUCAUUAACA, with 0.000246 ± 0.01; and UAGUGACAGUCCUUCUCUGACUCAUUAACA, with 0.000164 ± 0.018; and UAGUGACAGUGGAAGUCUGAGAGCAUUAACA, with 0.000431 ± 0.0092. As to UAGUGACAGUGGUUCUCUGAGCAGAUUAACA, the “pre-steady-state target cleavage rate” value worked out at 0.000254 ± 0.011.

These data come from the supplement of paper PMC10338343.
